Data: patent US7652020B2, “Compounds for the treatment of inflammatory disorders” (Schering Corporation, priority 2004, dated 2010)
Structures were worked out from names or drawings and are uncertain.

The chains behind the UniProt entries cited, without tags or fusion partners. Residues count along the entry.
UniProt P78536, 215-477 S266A/N452Q limits assumed: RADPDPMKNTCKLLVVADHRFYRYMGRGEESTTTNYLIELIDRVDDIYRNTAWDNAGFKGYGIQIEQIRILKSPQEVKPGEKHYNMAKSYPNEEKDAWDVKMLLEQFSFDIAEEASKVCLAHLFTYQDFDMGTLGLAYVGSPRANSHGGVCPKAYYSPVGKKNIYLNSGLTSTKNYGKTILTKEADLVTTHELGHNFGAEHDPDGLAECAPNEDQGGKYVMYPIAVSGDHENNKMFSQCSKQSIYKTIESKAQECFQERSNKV

Molecular target: purified catalytic domain of recombinant human TACE (rhTACEc) (Homo sapiens, UniProt P78536, N452Q/S266A)
Test: TACE kinetic assay: cleavage of internally quenched peptide substrate SPDL-3, fluorescence
Format: biochemical
Conditions: TACE inhibitory activity, class symbols

Structure (SMILES) | Ki
Cn1ccnc1[C@H](O)[C@@H](O)C(=O)NCC1CCN(c2ccccc2OC(F)(F)F)CC1 | 100 to 1000 nM
O=C(NCc1ccc(-c2ccccc2Oc2ccccc2)cc1)[C@H](O)[C@@H](O)C(=O)N1CCCC1 | 100 to 1000 nM
CC(C)(C)CCOc1cc(F)ccc1-c1ccc(CNC(=O)[C@H](O)[C@@H](O)C(=O)N2CCCC2)cc1 | 100 to 1000 nM
C[C@@H](NC(=O)[C@H](O)[C@@H](O)C(=O)N1CC=CC1c1cccc(Cl)c1)c1ccc(-n2cccn2)cc1 (stereo partly shown) | < 20 nM
CCOc1cc(F)ccc1-c1ccc(CNC(=O)C(O)C(O)C(=O)N2Cc3ccccc3C2(C)C)cc1 (stereo not shown) | 100 to 1000 nM
N#Cc1nc(CNC(=O)[C@H](O)[C@@H](O)C(=O)N2Cc3ccccc3C2)ccc1-c1ccccc1OC(F)(F)F | > 1000 nM
CCOc1cc(F)ccc1-c1ccc(C(C)(C)NC(=O)[C@H](O)[C@@H](O)C(=O)N2CCCC2)cc1 | > 1000 nM
C[C@@H](NC(=O)[C@H](O)[C@@H](O)C(=O)N1C[C@H]2C[C@@H](C1)c1cccc(=O)n1C2)c1ccc(-n2cccn2)cc1 | 100 to 1000 nM

The next lines start with the values.

Ki | Structure (SMILES)
< 20 nM | C[C@@H](NC(=O)[C@](C)(O)[C@@H](O)C(=O)N1Cc2nccnc2C1)c1ccc(-n2cccn2)cc1
< 20 nM | C[C@@H](NC(=O)[C@H](O)[C@@H](O)C(=O)N1CCOCC1c1ccccc1)c1ccc(-n2cccn2)cc1 (stereo partly shown)
< 20 nM | CC#CCOc1cc([C@@H](C)NC(=O)[C@H](O)[C@@H](O)C(=O)N2CCC[C@@H]2c2csc(NC(C)C)n2)ccc1-n1cccn1
20 to 100 nM | C[C@@H](NC(=O)[C@H](O)[C@@H](O)C(=O)N1Cc2cnc(N)nc2C1(C)C)c1ccc(-n2cccn2)cc1
< 20 nM | C[C@@H](NC(=O)[C@H](O)[C@@H](O)C(=O)N1Cc2nccnc2C1)c1ccc(-n2cccn2)cc1
